# Source: PMC5784988
# The chains behind the UniProt entries cited, without tags or fusion partners.
# UniProt P32114: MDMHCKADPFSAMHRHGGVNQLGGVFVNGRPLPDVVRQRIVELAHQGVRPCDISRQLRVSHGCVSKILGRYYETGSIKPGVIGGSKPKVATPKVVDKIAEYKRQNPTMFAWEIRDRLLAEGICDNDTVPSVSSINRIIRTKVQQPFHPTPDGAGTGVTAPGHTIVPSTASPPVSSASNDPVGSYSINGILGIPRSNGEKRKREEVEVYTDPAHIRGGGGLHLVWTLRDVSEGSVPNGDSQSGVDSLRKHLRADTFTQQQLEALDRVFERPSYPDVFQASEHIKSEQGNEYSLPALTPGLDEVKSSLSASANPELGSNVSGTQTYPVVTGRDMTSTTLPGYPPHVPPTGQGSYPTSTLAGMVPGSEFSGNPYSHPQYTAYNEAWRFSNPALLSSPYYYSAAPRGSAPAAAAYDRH
# UniProt O09106: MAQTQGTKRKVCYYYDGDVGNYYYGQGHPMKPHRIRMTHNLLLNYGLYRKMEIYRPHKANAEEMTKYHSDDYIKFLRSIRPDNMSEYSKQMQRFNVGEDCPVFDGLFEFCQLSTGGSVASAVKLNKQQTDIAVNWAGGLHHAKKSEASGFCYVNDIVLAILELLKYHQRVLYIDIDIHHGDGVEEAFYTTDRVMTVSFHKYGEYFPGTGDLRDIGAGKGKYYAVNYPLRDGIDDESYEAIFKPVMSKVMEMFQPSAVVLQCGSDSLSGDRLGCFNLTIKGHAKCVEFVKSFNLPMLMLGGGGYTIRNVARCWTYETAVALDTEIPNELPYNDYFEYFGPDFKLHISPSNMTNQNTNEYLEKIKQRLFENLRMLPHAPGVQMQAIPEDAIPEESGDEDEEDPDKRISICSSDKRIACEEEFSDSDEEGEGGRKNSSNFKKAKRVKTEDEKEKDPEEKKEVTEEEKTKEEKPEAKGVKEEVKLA
# UniProt P70288: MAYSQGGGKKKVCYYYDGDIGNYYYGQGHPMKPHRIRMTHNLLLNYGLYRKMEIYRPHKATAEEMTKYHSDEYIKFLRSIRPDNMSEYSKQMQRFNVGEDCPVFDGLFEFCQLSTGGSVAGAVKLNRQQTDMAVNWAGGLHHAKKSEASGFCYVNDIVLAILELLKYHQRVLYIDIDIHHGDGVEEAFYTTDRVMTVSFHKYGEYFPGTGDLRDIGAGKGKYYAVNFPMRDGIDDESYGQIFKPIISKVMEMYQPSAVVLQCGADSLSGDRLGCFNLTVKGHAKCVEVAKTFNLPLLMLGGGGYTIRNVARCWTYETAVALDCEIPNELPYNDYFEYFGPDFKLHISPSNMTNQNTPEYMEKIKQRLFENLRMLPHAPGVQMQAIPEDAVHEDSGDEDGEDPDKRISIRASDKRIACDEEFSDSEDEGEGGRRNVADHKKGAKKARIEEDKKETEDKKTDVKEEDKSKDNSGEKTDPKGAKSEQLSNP
# UniProt Q6PDQ2: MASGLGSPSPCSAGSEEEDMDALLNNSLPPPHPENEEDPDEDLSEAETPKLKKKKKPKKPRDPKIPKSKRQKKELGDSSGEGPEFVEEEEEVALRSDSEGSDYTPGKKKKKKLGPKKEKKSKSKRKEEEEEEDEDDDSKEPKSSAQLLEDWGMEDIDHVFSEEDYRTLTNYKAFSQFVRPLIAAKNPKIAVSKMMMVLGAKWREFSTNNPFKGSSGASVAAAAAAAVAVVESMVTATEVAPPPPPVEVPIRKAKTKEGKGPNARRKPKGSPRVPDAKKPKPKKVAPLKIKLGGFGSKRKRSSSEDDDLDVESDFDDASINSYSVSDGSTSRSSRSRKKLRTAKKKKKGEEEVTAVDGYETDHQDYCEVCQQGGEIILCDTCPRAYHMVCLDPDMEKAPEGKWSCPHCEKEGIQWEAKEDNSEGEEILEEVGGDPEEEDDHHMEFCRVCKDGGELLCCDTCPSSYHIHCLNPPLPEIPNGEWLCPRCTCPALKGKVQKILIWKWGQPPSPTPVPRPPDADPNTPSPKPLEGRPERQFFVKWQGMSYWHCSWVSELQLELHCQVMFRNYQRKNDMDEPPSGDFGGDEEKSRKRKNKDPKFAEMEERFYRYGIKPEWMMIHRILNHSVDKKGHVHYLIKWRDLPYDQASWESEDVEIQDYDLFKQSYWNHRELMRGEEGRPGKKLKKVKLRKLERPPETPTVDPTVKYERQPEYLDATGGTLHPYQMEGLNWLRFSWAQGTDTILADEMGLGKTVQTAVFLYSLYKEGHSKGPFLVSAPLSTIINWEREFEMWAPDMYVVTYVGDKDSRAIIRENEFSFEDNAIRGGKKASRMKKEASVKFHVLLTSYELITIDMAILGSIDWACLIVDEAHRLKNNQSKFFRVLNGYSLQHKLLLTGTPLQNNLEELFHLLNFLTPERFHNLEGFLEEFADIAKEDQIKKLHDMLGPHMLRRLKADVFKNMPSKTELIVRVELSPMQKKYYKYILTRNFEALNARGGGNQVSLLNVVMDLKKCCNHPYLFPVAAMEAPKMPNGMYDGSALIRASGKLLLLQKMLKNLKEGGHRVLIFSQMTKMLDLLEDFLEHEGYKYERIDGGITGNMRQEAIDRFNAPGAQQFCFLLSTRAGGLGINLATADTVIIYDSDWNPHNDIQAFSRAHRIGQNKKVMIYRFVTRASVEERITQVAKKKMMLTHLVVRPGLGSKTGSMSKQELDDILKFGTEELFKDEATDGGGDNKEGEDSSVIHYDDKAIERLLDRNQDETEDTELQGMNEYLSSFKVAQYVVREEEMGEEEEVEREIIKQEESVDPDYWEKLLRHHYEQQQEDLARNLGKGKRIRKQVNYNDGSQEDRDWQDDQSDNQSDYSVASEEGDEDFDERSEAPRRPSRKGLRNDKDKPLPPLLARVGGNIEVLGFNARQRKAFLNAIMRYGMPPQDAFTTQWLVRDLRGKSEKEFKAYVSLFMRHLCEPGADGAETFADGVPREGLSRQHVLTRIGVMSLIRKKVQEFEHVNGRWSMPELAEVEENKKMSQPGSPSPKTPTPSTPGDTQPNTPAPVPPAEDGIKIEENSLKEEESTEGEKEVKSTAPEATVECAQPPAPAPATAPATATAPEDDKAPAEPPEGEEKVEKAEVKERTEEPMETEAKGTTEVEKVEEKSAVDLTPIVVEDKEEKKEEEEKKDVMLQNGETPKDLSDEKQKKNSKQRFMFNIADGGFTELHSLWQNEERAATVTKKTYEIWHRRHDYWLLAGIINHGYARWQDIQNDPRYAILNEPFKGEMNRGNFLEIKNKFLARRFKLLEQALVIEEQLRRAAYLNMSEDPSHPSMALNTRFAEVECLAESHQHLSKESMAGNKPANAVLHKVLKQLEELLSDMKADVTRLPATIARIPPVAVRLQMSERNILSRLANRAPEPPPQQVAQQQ
# UniProt Q8K4B0: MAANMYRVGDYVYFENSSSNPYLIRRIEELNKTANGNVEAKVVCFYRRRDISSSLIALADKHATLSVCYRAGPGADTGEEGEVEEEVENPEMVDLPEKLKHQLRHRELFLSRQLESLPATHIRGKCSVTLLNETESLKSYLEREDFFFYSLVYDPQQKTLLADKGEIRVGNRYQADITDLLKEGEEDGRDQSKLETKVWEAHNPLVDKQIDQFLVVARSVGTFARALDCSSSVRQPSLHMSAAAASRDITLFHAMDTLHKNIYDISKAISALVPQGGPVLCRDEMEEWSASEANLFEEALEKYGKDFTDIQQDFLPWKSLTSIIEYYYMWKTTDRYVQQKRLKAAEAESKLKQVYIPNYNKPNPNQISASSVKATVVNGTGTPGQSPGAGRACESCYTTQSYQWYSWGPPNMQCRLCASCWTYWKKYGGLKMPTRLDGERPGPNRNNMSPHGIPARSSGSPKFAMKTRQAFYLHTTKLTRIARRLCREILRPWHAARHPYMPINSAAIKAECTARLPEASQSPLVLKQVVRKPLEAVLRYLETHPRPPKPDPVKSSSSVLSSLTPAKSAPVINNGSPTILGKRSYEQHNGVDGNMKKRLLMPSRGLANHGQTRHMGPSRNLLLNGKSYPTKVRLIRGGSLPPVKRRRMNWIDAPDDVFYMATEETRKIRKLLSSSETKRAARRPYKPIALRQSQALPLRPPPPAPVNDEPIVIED
# These are yes or no findings as the source states them, for the method shown. Binding seen in cells or lysates may run through a third protein. Some results given as binding are weak or reduced against the parent protein; the word gives no strength.
# Target: Pax2 (mouse (endogenous in VOT-N33)) (UniProt P32114)
# Test: co-IP; nuclear extract of undifferentiated N33 cells, pre-cleared with protein G sepharose; immunoprecipitation with anti-Pax2 or anti-LSD1 antibody overnight, protein G Sepharose 2 h at 4°C; washes in 10 mM Tris-HCl pH 7.5, 75 mM NaCl, 1 mM EDTA, 6% glycerol, 1% NP-40, 1 mM DTT; western blot; rabbit IgG as negative control
row,binding,Substance
1,binds,HDAC1 (from UniProt O09106 1-482) (enzyme)
2,binds,HDAC2 (from UniProt P70288 1-488) (enzyme)
3,binds,chromodomain-helicase-DNA-binding protein 4 (CHD4) (from UniProt Q6PDQ2 1-1915)
4,binds,metastasis-associated 1 (MTA1) (from UniProt Q8K4B0 1-715)
